About 5,900 (2.8%) of roughly 210,000 compounds were called active. Roughly 5% stayed inconclusive and do not appear here. Calls come from the whole dose curve; as a rule, active = well fitted activation curve with a large enough effect; inconclusive = small, poorly fitted or top-dose-only effect; inactive = no such curve, though single readings can be large or run the other way. Only a part is listed here, and it is no random draw. Entries without a call were filed so in the source.
Potency is the fitted concentration of half-maximal effect.

This experiment is described as follows: qHTS Assay for Enhancers of SMN2 Splice Variant Expression. For activity change, positive = activation: % of control where 0% means no effect. Note: nearly all actives have a fitted effect of over 55% in size. To be noted: HEK293 SMN2-luciferase splicing reporter, luminescence, 30-36 h; activity change, positive = activation: at 46.1 µM (top of the series) unless noted. The procedure, abridged:
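HEK293 cells carry an SMN2 […]–luciferase reporter in which exon 7 inclusion puts luciferase in frame. Cells were plated 10-12 h before compound addition, then incubated 30-36 h at 37C. ONE-Glo luminescence was read; sodium butyrate at 4.5 mM final served as control.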
On the technique in general: Quantitative high-throughput screening tests each substance at several concentrations.
On to `COC(=O)c1ccc(-c2ccc(/C=N/NC(=O)CC3(C)OCCCO3)o2)cc1`, for which the Potency was active: 11.2 µM. Take `O=C1CC(SCc2nc3ccccc3[nH]2)C(=O)N1c1cccc(F)c1` (stereo not given): the activity change, positive = activation turned out to be 31.4%. Turning to `CN(c1ccccc1)S(=O)(=O)c1ccc(NC(=O)c2ccc(-c3ccccc3)cc2)cc1`, the activity change, positive = activation is -52.8%. Still for that read-out and setting: the same measure for `CCOC(=O)C1CCCN(C(=O)c2ccc3c(=O)n(CCOC)c(=S)[nH]c3c2)C1` (stereo not given): inactive: -66.6%; for `Fc1ccc(-c2cc(C(F)(F)F)nc(NCc3cccs3)n2)cc1`: inactive: -30.3%; for `COC(=O)c1ccc(OCC(=O)c2ccccc2OC)cc1`: inactive: -24.7%. Turning to `CC1CCCC(NC(=O)NC(=O)CCl)C1C` (stereo not given), the “activity change, positive = activation” value was inactive: -106%. For `O=C(CNS(=O)(=O)c1ccc(C(=O)N2CCCCC2)cc1)N1CCCCC1`, the activity change, positive = activation was -58.4%. Same read-out and setting: as for `O=C(Oc1cc2oc(=O)cc(-c3ccccc3)c2cc1Cl)C1CCCCC1`, the figure is inactive: -34%. For the molecule `Cc1cccc(N(CC(O)Cn2c3ccccc3c3ccccc32)S(=O)(=O)c2ccc(F)cc2)c1` (stereo not given), the “activity change, positive = activation” value is inactive: -92.2%. As for `Cc1cccc(C)c1OCC(=O)Nc1ncn[nH]1`, the activity change, positive = activation is -1.74%. With `COc1cccc(C2OC(=O)c3ccccc3N2C(C)=O)c1OC(C)=O` (stereo not given), the activity change, positive = activation was 51.8%.

For the molecule `O=C(CSc1nc2scc(-c3ccco3)c2c(=O)n1-c1ccccc1)N1CCOCC1`, the activity change, positive = activation stood at 34.9%. `CN(C)c1ccnc2sc(C(=O)NCc3ccccc3)c(N)c12`: the activity change, positive = activation worked out at 43.6%. In the case of `Cc1cc(C=C2C(=O)c3ccccc3C2=O)c(C)n1-c1ccc(Cl)cc1`, the “activity change, positive = activation” value is inactive: -60.1%. For `CCc1ccccc1N1CC(c2nc3ccccc3n2CCCCOc2ccccc2OC)CC1=O` (stereo not given), the “activity change, positive = activation” value was inactive: -73.1%. Consider `COc1ccc(/C=N/NC(=S)Nc2cccc(C(=O)O)c2)cc1`, for which the Potency was active: 12.6 µM. Regarding `COc1ccc(C(=O)N(Cc2ccco2)Cc2cccs2)c(O)c1`, the activity change, positive = activation came to 27%. With `CNc1nnc(-c2ccc(OC)cc2)s1`, the Potency is active: 12.6 µM. As to `OC1C=C2CCN3Cc4cc5c(cc4C(C1O)C23)OCO5` (stereo not given), the “activity change, positive = activation” value was inactive: -49%.

Take `COc1cc(C2NC(=S)NC(O)(C(F)(F)F)C2C(=O)c2cccs2)cc(OC)c1O` (stereo not given): the activity change, positive = activation amounted to 31.8%. Consider `CCCc1[nH]nc2c1C(c1ccc(OCCN3CCOCC3)c(OCC)c1)C(C#N)=C(N)O2` (stereo not given), for which the activity change, positive = activation was 52.9%.

On to `C/C(=N\OC(=O)NC1CCCCC1)c1sc(-c2ccccc2)nc1C`, for which the “activity change, positive = activation” value is inactive: -54.7%.

For the molecule `O=C(O)c1ccc(N/N=C/c2ccc(C(F)(F)F)cc2)cc1`, the “activity change, positive = activation” value is inactive: -54.6%. For the molecule `Nc1nc(SCc2ccccc2)[nH]c(=O)c1-c1ccccc1`, the Potency is active: 12.6 µM. In the case of `Nc1nc(Nc2ccc(Cl)cc2)nc2ccccc12`, the activity change, positive = activation was found to be 14.1%. With `CC(C)N(Cc1ccccc1)S(=O)(=O)N(C)C`, the activity change, positive = activation turned out to be 38.3%. With `COC(=O)c1ccc(NC(=S)Nc2ccccc2)cc1`, the “activity change, positive = activation” value was inactive: -39.6%.

With `O=C(CS(=O)(=O)c1ccccc1)N1CCc2ccccc21`, the Potency is active: 14.1 µM. As for `COC(=O)C1=C(C)N(C)C(=S)NC1c1ccc(OC)cc1OC` (stereo not given), the activity change, positive = activation was determined as 25.8%. For `O=C(c1ccco1)N1CCN(Cc2cccc(F)c2)CC1`, the activity change, positive = activation came to 62.3%. As for `O=C(N/N=C/c1ccccc1)c1n[nH]c2c1CCCC2`, the Potency is active: 5.01 µM. Turning to `CC(=O)Nc1ccc(C)cc1NC(C)=O`, the activity change, positive = activation is 35.1%. Same read-out and setting: the same measure for `O=C(N/N=C/c1c(O)ccc2ccccc12)c1cccc(C(F)(F)F)c1`: inactive: -106%. For the molecule `CCC1C(=O)n2nc(-c3ccccc3)cc2N=C1C` (stereo not given), the Potency is active: 12.6 µM.

Regarding `O=C(Cn1cncn1)c1ccc(F)cc1F`, the activity change, positive = activation is 39.8%. Regarding `Cc1ccc(-c2c(C)n3c4c(=O)n(C)c(=O)n(C)c4nc3n2CCCO)cc1`, the “activity change, positive = activation” value is inactive: -51.3%.

Regarding `O=C(O)C(=O)/C(=C\c1ccc(Cl)cc1)c1ccc2ccccc2n1`, the Potency was active: 12.6 µM. Turning to `O=C1CC(c2ccccc2)Cc2nc3ncnn3cc21` (stereo not given), the activity change, positive = activation worked out at 30.3%. `CCC(=O)Nc1cccc(C(=O)/C=C/c2cc(Br)ccc2OC)c1`: the activity change, positive = activation was -91.8%.

Take `CC(=O)c1c(C)[nH]c(C(=O)CSc2nnc(-c3ccccc3)n2Cc2ccc3c(c2)OCO3)c1C`: the activity change, positive = activation was 36.3%. For the molecule `CCC(=O)N1CCc2cc(S(=O)(=O)N(CC)c3cccc(C)c3)ccc21`, the activity change, positive = activation was -28.9%. Take `COCCNS(=O)(=O)c1ccc(-c2ccc(C)cc2)cc1`: the activity change, positive = activation was -65.5%. `CC(C)Cc1nc(NCCN2CCOCC2)c(C#N)c2c1COC(C)(C)C2`: the activity change, positive = activation turned out to be 34.6%. On the same count and under the same terms, the same measure for `COCCn1nnnc1C(c1cc(OC)ccc1OC)N1CCc2ccccc2C1` (stereo not given): 37.4%; for `C=CCn1c(C)cc(-c2csc(NCC)n2)c1C`: 150%. Consider `Cc1cc(C(=O)CN2C(=O)NC3(CCCc4ccccc43)C2=O)c(C)n1Cc1ccco1` (stereo not given), for which the activity change, positive = activation came out at 35.5%.

On to `COc1ccc(CCNC(=O)CSc2nnnn2-c2ccc(OC)c(OC)c2)cc1OC`, for which the activity change, positive = activation is -32.8%. For `N#CC/C(N)=N/NC(=O)CCCNc1ncc(C(F)(F)F)cc1Cl`, the Potency is active: 15.8 µM.

As for `CC(C)Cn1c(=O)[nH]c2ccccc21`, the activity change, positive = activation was 54.9%. As to `Cc1ccc(/C=C/C(=O)OCC(=O)Nc2cccc(S(=O)(=O)N(C)C)c2)o1`, the “activity change, positive = activation” value was inactive: 5.73%. The same measure, in the same setting: as for `O=C(Nc1ccc2c(c1)N(Cc1ccccc1)C(=O)c1ccccc1S2)NC1CC1`, the figure is -34.5%. On to `CCN1CCN(CCNC(=O)CSCc2nc(-c3ccc(OC)c(OC)c3)oc2C)CC1`, for which the activity change, positive = activation is -30.8%. For `CCOc1c(Cl)cc(CNc2ccc(S(N)(=O)=O)cc2)cc1OC`, the activity change, positive = activation was -67.1%. For the molecule `O=C(N/N=C1\CCCc2ccccc21)c1ccc([N+](=O)[O-])cc1`, the Potency was active: 14.1 µM.

The values above are taken from PubChem BioAssay AID1458 (National Center for Advancing Translational Sciences (NCATS), 2008).
